Laboratory results: patent US20180162932A1 (ACADEMISCH MEDISCH CENTRUM, published 2018)
No constants are given. Whether binding was seen depends on the method and setting. Some results given as binding are weak or reduced against the parent protein; the word gives no strength.

By UniProt entry, the sequences of proteins in these tests, tags left out. Where a name states a change or a piece, a line headed by the entry shows the natural chain unless it says otherwise.
UniProt P12643: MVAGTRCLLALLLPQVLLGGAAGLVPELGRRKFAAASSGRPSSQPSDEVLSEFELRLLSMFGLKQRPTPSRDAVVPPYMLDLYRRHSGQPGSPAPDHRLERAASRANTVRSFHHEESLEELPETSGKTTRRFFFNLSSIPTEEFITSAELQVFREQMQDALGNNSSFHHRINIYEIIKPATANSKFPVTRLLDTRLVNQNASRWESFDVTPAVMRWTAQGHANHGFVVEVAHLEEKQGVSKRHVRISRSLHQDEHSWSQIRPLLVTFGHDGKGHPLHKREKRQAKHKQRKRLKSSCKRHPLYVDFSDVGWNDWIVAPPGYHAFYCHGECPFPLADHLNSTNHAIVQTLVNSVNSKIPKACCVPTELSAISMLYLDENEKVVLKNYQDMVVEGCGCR

Tests used:
[1] = molecular target: mature bone morphogenic protein 2 (human, UniProt P12643 283-396); assay: SPR, control on chip, BMP injected
[2] = molecular target: T1, human mature bone morphogenic protein 5 (human, UniProt P22003 340-454); assay: SPR, control on chip, BMP injected
T1 construct: Often printed as BMPS in the text; also called BMP5; BMPS (so in the source)
T1 sequence: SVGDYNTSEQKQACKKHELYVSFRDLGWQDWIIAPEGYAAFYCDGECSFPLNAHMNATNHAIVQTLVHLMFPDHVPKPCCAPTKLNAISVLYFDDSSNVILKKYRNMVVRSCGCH

[3] = molecular target: T2, human mature bone morphogenic protein 6 (human, UniProt P22004 375-513); assay: SPR, control on chip, BMP injected
T2 construct: also called BMP6; BMP-6
T2 sequence: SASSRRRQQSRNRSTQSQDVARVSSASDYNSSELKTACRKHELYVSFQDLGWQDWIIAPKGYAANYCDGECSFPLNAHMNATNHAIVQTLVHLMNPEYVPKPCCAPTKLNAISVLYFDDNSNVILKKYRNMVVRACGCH

[4] = molecular target: T3, human mature bone morphogenic protein 7 (human, UniProt P18075 293-431); assay: SPR, control on chip, BMP injected
T3 construct: also called BMP7; BMP-7
T3 sequence: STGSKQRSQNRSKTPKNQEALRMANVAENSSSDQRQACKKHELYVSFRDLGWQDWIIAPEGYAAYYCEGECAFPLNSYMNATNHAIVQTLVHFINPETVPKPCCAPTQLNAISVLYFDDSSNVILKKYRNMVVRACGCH

[5] = molecular target: T4, human mature bone morphogenic protein 4 (human, UniProt P12644 295-408); assay: SPR, control on chip, BMP injected
T4 sequence: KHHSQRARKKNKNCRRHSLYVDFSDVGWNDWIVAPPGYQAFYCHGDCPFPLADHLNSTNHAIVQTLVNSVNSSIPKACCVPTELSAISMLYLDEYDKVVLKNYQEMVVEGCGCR

[6] = molecular target: T4, human mature bone morphogenic protein 4; assay: SPR sandwich (epitope binning): BMP4 captured on the spotted molecule, then mNoggin injected [F]

binding [1]: binds
binding [2]: binds
binding [3]: binds
binding [4]: binds
binding [5]: binds
binding [6]: binds
B1: mouse Noggin (other, UniProt P97466 28-232, looked up)
chain: QHYLHIRPAPSDNLPLVDLIEHPDPIFDPKEKDLNETLLRSLLGGHYDPGFMATSPPEDRPGGGGGPAGGAEDLAELDQLLRQRPSGAMPSEIKGLEFSEGLAQGKKQRLSKKLRRKLQMWLWSQTFCPVLYAWNDLGSRFWPRYVKVGSCFSKRSCSVPEGMVCKPSKSVHLTVLRWRCQRRGGQRCGWIPIQYPIISECKCSC
